Taken from: PubChem BioAssay AID743454 (Peter MacCallum Cancer Centre, 2014)

- Screen: 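Search for knock-downs that restore vorinostat killing in resistant colon cancer cells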 (primary screen)
- Cell system: human HCT116-VR colon cancer cells, selected for vorinostat resistance
- Knock-down reagent: siRNA pool against human genes, 40 nM siRNA pool
- Time to read-out: vorinostat for 24 h, read-out about 72 h after transfection
- Conditions: vorinostat at 2.5 µM final
- Measured: 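Cell viability by CellTiter-Fluor and caspase 3/7 activity by luminescence, each scaled to mock wells per plate, duplicates averaged, then robust z-scored over all plates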
- Reading the numbers: viability robust z-score: higher = more viable cells than screen typical; caspase robust z-score: higher = more caspase 3/7 activity than screen typical
- Call rule: 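Hits are knock-downs in viability class RV1/RV2 or caspase class CA1/CA2, excluding ones that killed cells in the no-drug cell-count arm; hits then retested with single siRNAs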
Here is an unselected part of about 18,000 reagents tested. 450 of them (2.5%) were called active. 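Single biological run; no consistent viability z cut-off exists, so the class columns, not z-scores, define the calls.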 No sequences are given here.

target,PubChem SID,viability hit class,caspase hit class,viability robust z-score,caspase robust z-score,activity call
CHMP4B,SID134321965,no change,no change,-2.17,4.61,inactive
MEF2D,SID134314581,no change,no change,0.36,2.58,inactive
CACNA2D1,SID152152897,no change,no change,-0.91,3.33,inactive
CAMKK1,SID135620905,no change,no change,1.36,-0.05,inactive
EMG1,SID152149732,no change,no change,-1.02,-0.45,inactive
ZBTB6,SID152153777,no change,no change,0.28,2.31,inactive
RBMX,SID152156680,no change,no change,-0.81,1.47,inactive
WDFY2,SID152156669,no change,no change,-0.55,2.66,inactive
ESS2,SID152152073,no change,no change,0.2,0.14,inactive
NT5DC1,SID134329272,no change,no change,0.53,0.38,inactive
CD86,SID135621458,no change,no change,-0.12,-0.83,inactive
TMEM45B,SID152147451,no change,no change,-0.75,-0.69,inactive
CGREF1,SID152149791,no change,no change,1.17,-1.13,inactive
LANCL2,SID152151490,no change,no change,0.44,2.98,inactive
ETFDH,SID152151759,no change,no change,-1.18,0.92,inactive
NAIF1,SID135624171,no change,no change,-1.12,0.7,inactive
ABCB5,SID152150693,no change,no change,0.2,-0.18,inactive
NEXMIF,SID152148999,no change,no change,0.2,-1.19,inactive
BTG2,SID134316588,no change,no change,0.66,0.23,inactive
DMKN,SID135623739,no change,no change,-1.88,0.4,inactive
PROP1,SID134323874,no change,no change,0.09,1.92,inactive
SYNE4,SID135623228,no change,no change,-0.09,1.17,inactive
TCFL5,SID134314321,no change,no change,1.2,1.34,inactive
ZNF250,SID152156011,no change,no change,0.39,0.16,inactive
CBLN3,SID135625474,no change,no change,0.24,-0.22,inactive
TSHZ1,SID152154813,no change,no change,1.15,-0.24,inactive
NEK10,SID56478763,no change,no change,-0.32,-0.05,inactive
TIPE1,SID134320436,no change,no change,-0.72,2.87,inactive
POMP,SID135623221,no change,no change,-3.84,2.73,inactive
ZNF703,SID135622766,no change,no change,1.29,-0.08,inactive
HBB,SID135622040,no change,no change,-0.58,0.92,inactive
FOXRED2,SID135621510,no change,no change,-0.03,-0.32,inactive
MRPS15,SID134317827,no change,no change,-0.82,-0.18,inactive
KDM4D,SID134324359,no change,no change,-0.47,0.98,inactive
ADI1,SID134324102,no change,no change,-0.96,-0.84,inactive
GJB5,SID152150165,no change,no change,-1.02,0.06,inactive
SLC15A3,SID134312448,no change,no change,1.09,0.13,inactive
MIX23,SID135624382,no change,no change,-0.66,0.92,inactive
CRTC3,SID152151077,no change,no change,0.73,1.6,inactive

Targets listed so far whose target name starts with E or e (3):
target,PubChem SID,viability hit class,caspase hit class,viability robust z-score,caspase robust z-score,activity call
EMG1,SID152149732,no change,no change,-1.02,-0.45,inactive
ESS2,SID152152073,no change,no change,0.2,0.14,inactive
ETFDH,SID152151759,no change,no change,-1.18,0.92,inactive
